Test results reported in patent CN111690063A.
Results are given in words; binding and its absence hold for the method and conditions named. Some results given as binding are weak or reduced against the parent protein; the word gives no strength.

Amino acid sequences for entries named in this document (tags omitted). Residues count along the entry.
UniProt P04141, residues 18-144: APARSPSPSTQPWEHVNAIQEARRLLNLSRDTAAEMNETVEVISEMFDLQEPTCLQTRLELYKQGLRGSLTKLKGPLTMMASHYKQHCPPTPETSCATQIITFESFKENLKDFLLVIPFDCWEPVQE

Tests used:
[1] = target: 粒细胞-巨噬细胞集落刺激因子 (human granulocyte-macrophage colony-stimulating factor, GM-CSF) (human) (UniProt P04141); assay: Indirect phage ELISA: GM-CSF coated at 10 μg/mL, phage-displayed nanobody clones, HRP anti-M13 detection
[2] = target: 粒细胞-巨噬细胞集落刺激因子 (human granulocyte-macrophage colony-stimulating factor, GM-CSF) (human) (UniProt P04141); assay: Biolayer interferometry type assay: GM-CSF loaded on SA sensor

B1: 抗GM-CSF纳米抗体G1 (VHH)
VHH: QLQLVESGGGLVQAGGSLRLSCAVSGRPSNVYDMGWFRRVPGKESRLMAYINWSRGSTYYADSVKGRFTISRDNTNNTVYLQMNSLKPEDTAVYYCAARAGPGTPAYNSWGQGTQVTVSS
[1]
  binding: binds
[2]
  binding: binds
